Measurements: article PMC8529007

Protein sequences, listed by entry. Tags and fused reporters are not part of them. Residues count along the entry.
UniProt P32592, residues 23-769: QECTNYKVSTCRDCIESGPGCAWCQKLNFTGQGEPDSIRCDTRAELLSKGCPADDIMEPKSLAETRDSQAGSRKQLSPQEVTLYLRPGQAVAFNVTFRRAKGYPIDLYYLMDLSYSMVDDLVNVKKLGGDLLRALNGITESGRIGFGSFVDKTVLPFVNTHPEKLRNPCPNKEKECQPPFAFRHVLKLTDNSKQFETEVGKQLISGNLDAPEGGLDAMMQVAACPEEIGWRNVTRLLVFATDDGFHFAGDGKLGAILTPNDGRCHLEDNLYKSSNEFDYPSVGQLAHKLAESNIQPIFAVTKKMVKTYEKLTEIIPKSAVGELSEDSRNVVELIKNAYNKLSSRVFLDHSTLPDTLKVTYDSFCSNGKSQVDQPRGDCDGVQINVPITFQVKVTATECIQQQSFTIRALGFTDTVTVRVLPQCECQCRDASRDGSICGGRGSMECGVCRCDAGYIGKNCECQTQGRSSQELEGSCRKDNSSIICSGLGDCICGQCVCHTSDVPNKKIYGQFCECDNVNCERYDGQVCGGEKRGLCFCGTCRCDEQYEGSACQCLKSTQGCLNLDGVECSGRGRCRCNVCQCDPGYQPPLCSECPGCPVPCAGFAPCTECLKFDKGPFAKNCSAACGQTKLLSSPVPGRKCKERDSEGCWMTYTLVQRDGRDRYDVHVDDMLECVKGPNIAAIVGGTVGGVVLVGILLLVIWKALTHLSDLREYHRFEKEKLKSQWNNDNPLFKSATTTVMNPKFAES

Key:
[1] = molecular target: CD18 (integrin β2), dairy cow neutrophils (bovine (endogenous in dairy cow neutrophils)) (UniProt P32592); experiment: affinity purification with mass spectrometry; endogenous CD11b or CD18 immunoprecipitated with a Pierce Crosslink IP kit; about 30 ug of IP complexes analysed by shotgun MS/MS (MASCOT)
[2] = molecular target: CD11b (integrin αM), dairy cow neutrophils (bovine (endogenous in dairy cow neutrophils)); experiment: as above

binding [1] | binding [2] | Molecule
binds |  | Heat shock cognate 71 kDa protein (Hsc70), P19120 (from UniProt P19120 1-650)
binds | binds | tripartite motif-containing protein 21 (TRIM21), Q7YRV4 (protein, UniProt Q7YRV4 1-469) MASAVPLTMMWEEVTCSICLDPMVEPMSIECGHSFCQECISEVGKEGGSVCPVCRRHFLLQNLRPNRQVANMVDNLRKISQGAKESPHGELCVVHREKIHLFCEEDGKALCWVCSQSQKHRDHPMVPIEEAAQEYQEKLQVALNKLRHKQELAEKLELDIAMKKASWKGKVEAHKLRIHEEFVRQKNFLAEEEQKQLQKLEEEERQQLRTLGDTEARLAQQIQALQELIAELERRRRGSALELLQEVKSVLERSESWNLKELDVASTDLRNVFYVPGIKKMLRTCGVHITLDPQTANPWLILSENRRQVRLANTRQEVPENEERFDSYPMVLGAQRFDSGKVYWEVDVTGKEAWDLGVCRDNVRRKGQFLLNSDTGFWIIWLWNKQKYEAGTCPQTPLHLQVPPNRIGIFLDYEASTVSFYNITDHASLIYTFSECAFAGPLRPFFNPGFNDRGTNSAPLILCPLKTGW

These are yes or no findings as the source states them, for the method shown. Binding seen in cells or lysates may run through a third protein. These calls come from enrichment with a bait or labelling near it, and not all partners need be listed.
